Experimental data as given in patent US8338568B2, “Chimeric PCSK9 proteins, cells comprising same, and assays using same” (Adaerata, Limited Partnership, priority 2006, dated 2012).

tested on: HEK293 cells; experiment: Processing of V5-tagged PCSK9 mutants in transiently transfected HEK293 cells (Western blot, V5 mAb); assay type: cell-based; conditions: media and lysates of HEK293 cells; FIG. 5

Substance	N-terminally truncated N2 form (loss of ~8 kDa from N1)
F216L: natural PCSK9 mutant Phe216-to-Leu, hypercholesterolemia-associated	significantly decreased
H226A: active site mutant of PCSK9, an inactive enzyme form that remains as zymogen in the ER [reference compound]	remains in the ER as propCSK9
R218S: natural PCSK9 mutant Arg218-to-Ser, hypercholesterolemia-associated, Furin/PC5A-resistant	not observed
R237W: natural PCSK9 variant R237W (Table 1)	occurs also
